The assay can be described thus: qHTS Assay for Modulators of Lamin A Splicing. Particulars: HeLa LMNA splicing GFP/RFP minigene ratio, 48 h. The method in brief: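 Read-out is the ratio of GFP to DsRed2 object intensity, acquired by 488 nm laser-scanning cytometry on HeLa lamin A-EGFP minigene reporter cells. Compound incubation 48 hrs at 37 °C in Opti-MEM with 2% FBS; DMSO 0.5% final.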
The mark [1] stands for this setting: measured here: GFP splicing reporter channel.
Where [2] appears, read: measured here: RFP viability control channel.

Experimental findings from PubChem BioAssay AID1487 (National Center for Advancing Translational Sciences (NCATS), 2009) are described below.

The other results are listed elsewhere or left out. Shown are side measurements of this screen, not its main read-out; they come without a call. Compounds called inactive in the main read-out are mostly missing here. Potencies come from curve fits of mixed quality, noted in brackets.

One may read the AC50 as the concentration at which the activity in the assay is half-maximal.

In the case of `Cc1ccc(CNC(=O)c2cc3c(=O)n(Cc4ccco4)ccc3nc2C)cc1`, the AC50 reads like this: under setting [1], 1 µM [rising, full curve]; under setting [2], 0.631 µM [rising, full curve].

Take `COc1cc(NC(=O)CSc2nc3ncccc3o2)cc(OC)c1`: the AC50 by setting is: under setting [1], 0.126 µM [falling, full curve, poor fit]; under setting [2], 0.1 µM [falling, full curve].

On to `Cc1ccc(N=c2c([N+](=O)[O-])nn(-c3ccccc3)n2O)c(C)c1`, for which the AC50 by setting is: under setting [1], 35.5 µM [rising, single point]; under setting [2], 35.5 µM [rising, single point].

In the case of `CCOC(=O)/C(=C/c1ccc(Cl)cc1)NC(=O)c1ccco1`, under setting [1], the AC50 is 3.16 µM [rising, partial curve].

Take `Nc1nc(-c2ccccc2)cc(N2CCCCC2)n1`: the AC50 under setting [2] was 3.98 µM [rising, full curve, poor fit].

As to `C(=C\c1ccccc1)/CSc1nnc(-c2ccccn2)n1Cc1ccco1`, the AC50 under setting [2] was 3.55 µM [rising, single point].

With `COc1ccc(-c2noc(CSc3nc(N)c(-c4ccccc4)c(=O)[nH]3)n2)cc1`, the AC50 under setting [2] was 35.5 µM [rising, single point].

Take `O=C(NNc1cccc(Cl)n1)Nc1ccc(F)cc1`: under setting [2], the half-maximal activity concentration (AC50) was 5.62 µM [rising, partial curve].

`O=[N+]([O-])c1cc(S(=O)(=O)Nc2ccccc2)ccc1N1CCN(c2ccc(O)cc2)CC1`: under setting [2], the half-maximal activity concentration (AC50) was 20 µM [rising, single point].

`CC(c1ccccn1)N(CCN(C)C)C(=S)Nc1cccc(F)c1` (stereo not drawn): the half-maximal activity concentration (AC50) by setting is: under setting [1], 20 µM [rising, single point]; under setting [2], 25.1 µM [rising, single point].

Consider `COc1cc(OC)c(NC(=O)c2ccc3c(SCC(=O)O)c4c(nc3c2)CCCC4)cc1Cl`, for which the AC50 under setting [2] was 0.00316 µM [rising, full curve, poor fit].

Regarding `CCN(c1ccccc1)S(=O)(=O)c1ccc(OC)c(NC(=O)CNC)c1`, the AC50 is 0.282 µM [falling, full curve] under setting [1] and 0.2 µM [falling, full curve, poor fit] under setting [2].

Turning to `Cc1ccc(OCCn2cnc(Cl)c2Cl)cc1`, the concentration at half-maximal activity (AC50) under setting [1] is 8.91 µM [rising, partial curve].

As to `CC(=O)Nc1ccc(OCC(O)CNC2CCCC2)cc1` (stereo not drawn), the AC50 under setting [2] was 31.6 µM [falling, partial curve].

In the case of `COCCn1c(=S)[nH]c2cc(C(=O)N3CCN(Cc4ccc5c(c4)OCO5)CC3)ccc2c1=O`, the AC50 under setting [1] is 2.82 µM [rising, full curve].

In the case of `O=C(Nc1nn(Cc2ccc(Cl)cc2)cc1Br)c1ccc(COc2ccccc2Cl)o1`, the half-maximal activity concentration (AC50) under setting [2] was 14.1 µM [rising, single point].

Turning to `CCOC(=O)Cc1c(Sc2ccccc2)c2cc(C)ccc2n1C`, the half-maximal activity concentration (AC50) under setting [2] is 35.5 µM [rising, partial curve, poor fit].

In the case of `Cc1ccc(CNC(=O)CS(=O)(=O)c2cccc3nsnc23)cc1`, the half-maximal activity concentration (AC50) under setting [1] was 0.0891 µM [rising, full curve, poor fit].

Consider `Cc1ccc2cc(C#N)c(N3CCCN(S(=O)(=O)c4ccc(F)cc4)CC3)nc2c1`, for which the AC50 under setting [2] was 17.8 µM [rising, partial curve, poor fit].

As to `Cc1ccc(CN2CCN(/N=C\C=C\c3ccccc3)CC2)cc1`, the AC50 under setting [1] is 0.891 µM [falling, full curve, poor fit].

Take `Cc1cccc(NS(=O)(=O)c2ccc3c(c2)CC(C)N3C(=O)C2CCC2)c1C` (stereo not drawn): the half-maximal activity concentration (AC50) under setting [2] is 0.02 µM [rising, full curve, poor fit].

Turning to `CCc1nc2ccc(C(=O)NCc3cc(OC)ccc3OC)cc2nc1CC`, the concentration at half-maximal activity (AC50) under setting [1] is 0.02 µM [rising, full curve, poor fit].

On to `COc1ccc(-c2ccnc(SCC(=O)c3ccc(OC)c(OC)c3)n2)cc1`, for which, under setting [2], the half-maximal activity concentration (AC50) is 6.31 µM [rising, partial curve].

In the case of `O=C(Nc1ccccc1Cc1ccccc1)c1ccccc1NS(=O)(=O)c1ccc(Cl)s1`, the AC50 is 14.1 µM [rising, partial curve] under setting [1] and 7.08 µM [rising, full curve] under setting [2].

`COc1cc(OC)c(C2N(C)c3ccccc3N2C)cc1OC`: the AC50 was 11.2 µM [rising, single point] under setting [1] and 22.4 µM [rising, single point] under setting [2].

Consider `Cc1cc(C)c(C#N)c(SCS(=O)Cc2ccccc2)n1` (stereo not drawn), for which the AC50 under setting [2] is 5.62 µM [falling, single point].

As for `Cc1cccc2sc(N(CCN(C)C)C(=O)c3ccc4c(c3)OCCO4)nc12`, the AC50 under setting [1] is 0.282 µM [rising, full curve, poor fit] and the half-maximal activity concentration (AC50) under setting [2] was 0.158 µM [rising, full curve, poor fit].

As to `COc1ccc(-n2ncc3c(=O)n(CC(=O)Nc4ccc(S(=O)(=O)N5CCOCC5)cc4)cnc32)cc1`, the AC50 under setting [2] is 35.5 µM [rising, single point].

Regarding `COc1ccc(CC(=O)NCc2n[nH]c(=S)n2-c2ccccc2OC)cc1`, the AC50 is 0.631 µM [rising, single point] under setting [1] and 0.501 µM [rising, single point] under setting [2].

`Cc1cc(OC(C)C(=O)Nc2cccc(-c3nc4ccccc4o3)c2)cc(C)c1Cl` (stereo not drawn): the AC50 under setting [1] is 5.01 µM [rising, partial curve, poor fit] and the AC50 under setting [2] was 14.1 µM [rising, partial curve].

Consider `Cc1ccccc1OCc1nc2ccccc2c(=O)n1/N=C/c1cn[nH]c1-c1ccccc1`, for which the concentration at half-maximal activity (AC50) by setting is: under setting [1], 17.8 µM [rising, partial curve]; under setting [2], 17.8 µM [rising, partial curve].

In the case of `COc1ccc(N=C2SC(CC(=O)Nc3ccccc3)C(=O)N2Cc2ccccn2)cc1` (stereo not drawn), the AC50 under setting [1] was 17.8 µM [falling, single point].

Take `CCN1CCCC1CNC(=O)c1cc2c(C)nc3ccccc3c2o1` (stereo not drawn): the concentration at half-maximal activity (AC50) under setting [2] was 0.0224 µM [rising, full curve, poor fit].

Regarding `Cc1ccc2[nH]c(=O)c(CN(Cc3ccc4c(c3)OCO4)Cc3nnnn3C3CCCC3)cc2c1`, the AC50 was 17.8 µM [rising, single point] under setting [1] and 15.8 µM [rising, single point] under setting [2].

As for `Cc1cccc(-c2nc(C)c(CCNC(=O)C(=O)Nc3ccccc3C#N)s2)c1`, the half-maximal activity concentration (AC50) is 12.6 µM [falling, partial curve] under setting [1] and 22.4 µM [falling, partial curve] under setting [2].
